The text below walks through data of article PMC8191236.

By UniProt entry, the sequences of proteins in these tests, tags left out. Where a name states a change or a piece, a line headed by the entry shows the natural chain unless it says otherwise. Chains listed by the source or under a name are the forms on record and can include a tag or linker.
UniProt P35568: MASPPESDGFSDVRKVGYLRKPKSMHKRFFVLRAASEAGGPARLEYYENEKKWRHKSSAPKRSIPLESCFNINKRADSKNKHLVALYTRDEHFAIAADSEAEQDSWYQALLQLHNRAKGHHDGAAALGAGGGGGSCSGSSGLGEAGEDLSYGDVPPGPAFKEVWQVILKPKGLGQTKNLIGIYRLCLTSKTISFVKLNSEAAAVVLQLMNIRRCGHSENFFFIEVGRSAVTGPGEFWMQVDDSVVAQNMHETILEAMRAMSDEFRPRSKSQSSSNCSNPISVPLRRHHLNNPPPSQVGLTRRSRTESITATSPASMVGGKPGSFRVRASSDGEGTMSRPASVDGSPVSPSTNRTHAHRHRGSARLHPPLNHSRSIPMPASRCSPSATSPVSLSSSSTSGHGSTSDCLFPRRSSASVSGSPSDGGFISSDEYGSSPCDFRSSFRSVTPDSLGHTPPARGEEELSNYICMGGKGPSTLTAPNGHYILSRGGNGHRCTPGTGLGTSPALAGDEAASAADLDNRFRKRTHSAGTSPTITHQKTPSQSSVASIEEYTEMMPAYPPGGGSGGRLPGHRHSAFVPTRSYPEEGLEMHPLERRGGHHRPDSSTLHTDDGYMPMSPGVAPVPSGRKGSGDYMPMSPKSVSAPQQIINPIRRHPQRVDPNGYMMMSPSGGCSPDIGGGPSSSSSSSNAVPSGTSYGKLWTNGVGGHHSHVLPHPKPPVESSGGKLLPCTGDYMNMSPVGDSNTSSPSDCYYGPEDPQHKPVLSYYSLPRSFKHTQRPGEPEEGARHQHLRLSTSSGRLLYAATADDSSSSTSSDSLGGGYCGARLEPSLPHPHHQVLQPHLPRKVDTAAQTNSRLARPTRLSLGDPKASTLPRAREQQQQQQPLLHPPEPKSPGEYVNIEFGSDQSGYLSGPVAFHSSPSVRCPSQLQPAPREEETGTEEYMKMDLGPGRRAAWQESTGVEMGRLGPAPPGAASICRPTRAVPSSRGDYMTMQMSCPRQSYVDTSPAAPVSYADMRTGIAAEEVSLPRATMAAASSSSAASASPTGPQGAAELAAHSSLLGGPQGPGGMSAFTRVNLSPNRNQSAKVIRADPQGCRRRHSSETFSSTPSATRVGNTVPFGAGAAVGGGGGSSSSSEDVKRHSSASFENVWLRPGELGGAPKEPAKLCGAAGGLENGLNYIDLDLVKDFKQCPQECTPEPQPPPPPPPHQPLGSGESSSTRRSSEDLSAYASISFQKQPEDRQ
FLAG-IRS-1 K1186_1189R mutant, in 293T cells (P35568, form named): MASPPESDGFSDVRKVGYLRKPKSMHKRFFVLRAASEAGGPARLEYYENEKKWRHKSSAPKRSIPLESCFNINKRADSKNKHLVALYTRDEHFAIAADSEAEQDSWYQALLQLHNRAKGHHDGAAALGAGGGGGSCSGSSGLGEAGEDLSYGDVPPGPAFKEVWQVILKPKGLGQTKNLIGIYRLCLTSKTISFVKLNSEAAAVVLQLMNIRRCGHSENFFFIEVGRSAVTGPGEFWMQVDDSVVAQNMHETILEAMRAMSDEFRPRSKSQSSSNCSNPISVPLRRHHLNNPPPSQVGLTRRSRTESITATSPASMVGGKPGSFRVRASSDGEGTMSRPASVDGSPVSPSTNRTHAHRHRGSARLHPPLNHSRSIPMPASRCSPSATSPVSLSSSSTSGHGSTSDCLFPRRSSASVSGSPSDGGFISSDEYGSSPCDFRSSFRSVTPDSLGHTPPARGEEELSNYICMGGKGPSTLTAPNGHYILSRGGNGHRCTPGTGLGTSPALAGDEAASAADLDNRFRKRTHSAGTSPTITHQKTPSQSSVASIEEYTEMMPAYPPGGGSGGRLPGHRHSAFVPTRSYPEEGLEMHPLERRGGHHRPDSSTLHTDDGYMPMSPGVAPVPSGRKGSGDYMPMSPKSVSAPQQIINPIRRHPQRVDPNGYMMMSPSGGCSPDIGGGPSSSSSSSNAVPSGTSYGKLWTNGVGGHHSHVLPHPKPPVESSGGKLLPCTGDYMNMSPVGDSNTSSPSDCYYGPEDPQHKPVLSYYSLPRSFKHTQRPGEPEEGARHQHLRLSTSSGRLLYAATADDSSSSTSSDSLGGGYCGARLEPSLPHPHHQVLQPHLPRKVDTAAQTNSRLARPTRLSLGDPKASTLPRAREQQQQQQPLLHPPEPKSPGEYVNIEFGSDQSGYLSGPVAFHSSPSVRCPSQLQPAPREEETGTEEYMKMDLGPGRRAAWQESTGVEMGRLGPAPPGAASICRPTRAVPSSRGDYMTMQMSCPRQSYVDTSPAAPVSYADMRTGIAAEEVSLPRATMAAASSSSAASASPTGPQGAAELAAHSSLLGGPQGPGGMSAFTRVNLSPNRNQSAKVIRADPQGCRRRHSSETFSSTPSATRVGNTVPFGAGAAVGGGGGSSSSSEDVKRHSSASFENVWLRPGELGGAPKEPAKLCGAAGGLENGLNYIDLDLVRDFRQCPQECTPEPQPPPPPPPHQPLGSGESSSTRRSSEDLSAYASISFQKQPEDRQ
UniProt P08069: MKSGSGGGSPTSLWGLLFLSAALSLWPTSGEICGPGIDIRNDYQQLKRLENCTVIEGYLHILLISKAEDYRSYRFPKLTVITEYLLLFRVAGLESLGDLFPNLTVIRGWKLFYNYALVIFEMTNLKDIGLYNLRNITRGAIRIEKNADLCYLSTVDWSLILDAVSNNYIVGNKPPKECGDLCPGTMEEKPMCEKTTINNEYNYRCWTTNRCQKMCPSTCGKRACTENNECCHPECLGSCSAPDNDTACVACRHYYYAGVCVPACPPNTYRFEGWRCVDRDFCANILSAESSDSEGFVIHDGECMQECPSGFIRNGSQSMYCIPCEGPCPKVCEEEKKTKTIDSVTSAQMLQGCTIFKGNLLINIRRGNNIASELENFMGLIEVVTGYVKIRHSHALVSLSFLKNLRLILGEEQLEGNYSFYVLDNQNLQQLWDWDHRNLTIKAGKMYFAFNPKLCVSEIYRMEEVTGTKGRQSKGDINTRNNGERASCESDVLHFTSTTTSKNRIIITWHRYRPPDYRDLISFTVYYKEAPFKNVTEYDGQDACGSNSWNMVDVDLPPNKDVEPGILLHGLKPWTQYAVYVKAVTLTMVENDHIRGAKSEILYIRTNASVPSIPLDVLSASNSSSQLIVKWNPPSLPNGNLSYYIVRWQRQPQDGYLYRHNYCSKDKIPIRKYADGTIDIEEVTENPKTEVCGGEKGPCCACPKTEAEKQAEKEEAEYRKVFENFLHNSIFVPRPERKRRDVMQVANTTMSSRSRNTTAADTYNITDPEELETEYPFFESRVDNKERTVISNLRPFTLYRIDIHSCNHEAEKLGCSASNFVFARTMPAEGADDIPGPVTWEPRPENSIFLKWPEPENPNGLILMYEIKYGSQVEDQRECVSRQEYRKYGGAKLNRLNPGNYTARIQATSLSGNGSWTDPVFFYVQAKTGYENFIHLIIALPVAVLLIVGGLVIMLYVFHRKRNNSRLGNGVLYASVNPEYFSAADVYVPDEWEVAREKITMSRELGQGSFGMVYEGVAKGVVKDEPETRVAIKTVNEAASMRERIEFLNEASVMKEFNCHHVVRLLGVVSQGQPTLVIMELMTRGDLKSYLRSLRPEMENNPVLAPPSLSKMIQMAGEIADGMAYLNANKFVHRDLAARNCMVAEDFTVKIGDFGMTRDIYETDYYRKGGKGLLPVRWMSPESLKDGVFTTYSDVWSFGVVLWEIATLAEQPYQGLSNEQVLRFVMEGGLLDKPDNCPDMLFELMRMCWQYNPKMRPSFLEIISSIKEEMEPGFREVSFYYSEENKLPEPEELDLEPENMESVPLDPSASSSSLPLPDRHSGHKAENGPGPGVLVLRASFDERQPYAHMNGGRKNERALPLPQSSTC

For one assay, the target named is T1, myc-tagged TRAF4 (UniProt Q9BUZ4).
T1 sequence: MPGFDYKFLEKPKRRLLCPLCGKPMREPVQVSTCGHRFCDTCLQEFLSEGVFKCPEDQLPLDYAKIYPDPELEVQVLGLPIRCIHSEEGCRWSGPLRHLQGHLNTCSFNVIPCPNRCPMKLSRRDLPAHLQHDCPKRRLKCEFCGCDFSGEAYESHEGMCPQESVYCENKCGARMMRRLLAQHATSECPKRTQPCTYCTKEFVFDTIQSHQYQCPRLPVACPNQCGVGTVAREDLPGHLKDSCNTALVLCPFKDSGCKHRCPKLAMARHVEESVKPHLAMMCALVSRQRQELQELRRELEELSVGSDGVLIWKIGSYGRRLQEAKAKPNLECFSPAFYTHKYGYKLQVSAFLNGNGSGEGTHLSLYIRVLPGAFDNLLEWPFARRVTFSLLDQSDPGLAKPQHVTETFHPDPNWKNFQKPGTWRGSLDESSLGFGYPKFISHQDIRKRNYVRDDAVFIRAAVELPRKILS
Description: co-IP; 293T cells transiently transfected with FLAG-IRS-1 and myc-TRAF4 or empty vector; immunoprecipitation with an anti-Myc antibody, Western blot; NP40 lysis buffer, 4 °C, 3 h.

Assay [1] deals with FLAG-IRS-1 K1186_1189R mutant, in 293T cells (human) (UniProt P35568). The experiment in a line: co-IP; 293T cells transfected with FLAG-IRS-1 WT or K1186_1189R mutant in the absence or presence of TRAF4, serum starved 24 h, IGF-1 (100 ng/ml) 15 min; immunoprecipitation with anti-FLAG antibody, Western blot.
For assay [2], the target named is FLAG-tagged IRS-1 (wild type), in 293T cells (human) (UniProt P35568). Described as above.
Assay [3] addresses endogenous IRS-1 (MCF-7) (human (endogenous in MCF-7)) (UniProt P35568). The experiment in a line: co-IP; as a3, but MCF-7 cells with TRAF4 knocked down by a pool of two siRNAs; serum starved 24 h, with or without IGF-1 (100 ng/ml) 15 min; immunoprecipitation with anti-IRS-1 antibody.
Assay [4] deals with FLAG-IRS-1 (wild type), in MCF-7 cells (human) (UniProt P35568). Description: co-IP; MCF-7 cells transfected with FLAG-IRS-1 with and without TRAF4, serum starved 24 h, with or without IGF-1 (100 ng/ml) 15 min; immunoprecipitation with anti-FLAG antibody, Western blot.
The target of assay [5] is endogenous IRS-1 (MCF-7) (human (endogenous in MCF-7)) (UniProt P35568). Description: co-IP; endogenous proteins of MCF-7 cells, serum starved 24 h, with or without IGF-1 (100 ng/ml, 10 or 15 min; Fig. 3D with control siRNA); immunoprecipitation with anti-IRS-1 antibody and protein A-agarose or IgG control, Western blot.
Assay [6] has as its target T2, endogenous TRAF4 (MCF-7) (human (endogenous in MCF-7)) (UniProt Q9BUZ4).
T2 sequence: T1 sequence
Description: co-IP; endogenous proteins of MCF-7 cells; immunoprecipitation with a TRAF4-specific antibody or IgG control, Western blot.

Assay [7] deals with endogenous IRS-1 (MCF-7) (human (endogenous in MCF-7)) (UniProt P35568). Description: co-IP; endogenous proteins of MCF-7 cells, serum starved 24 h, with or without IGF-1 (100 ng/ml, 10 or 15 min; Fig. 3D with control siRNA); immunoprecipitation with anti-IRS-1 antibody and protein A-agarose or IgG control, Western blot. This is another data set of the same source.
In assay [8] the target is FLAG-IRS-1 K1186_1189R mutant, in 293T cells (human) (UniProt P35568). The experiment in a line: co-IP; 293T cells transiently transfected with Myc-TRAF4 and FLAG-IRS-1 WT or K1186_1189R mutant; immunoprecipitation with anti-FLAG antibody, Western blot.
The target of assay [9] is FLAG-tagged IRS-1 (wild type), in 293T cells (human) (UniProt P35568). Described as above.

No constants are given. Whether binding was seen depends on the method and setting. Binding seen in cells or lysates may run through a third protein. Some entries that bind do so weakly or less than the wild type. For some of these results: Sequences can lack the tags named with a protein.

“FLAG-tagged IRS-1 (wild type), in 293T cells (from UniProt P35568 1-1242)”: the binding entry with myc-tagged TRAF4 is “binds”.

“endogenous IGF-1 receptor (293T), detected by its beta subunit (from UniProt P08069 741-1367; P08069 31-736)”: the binding entry in assay [1] and in assay [2] was “binds” in each case. “endogenous IGF-1 receptor (MCF-7), detected by its beta subunit (from UniProt P08069 741-1367; P08069 31-736)”: the binding entry in assay [3] is given as “no binding (condition: with TRAF4 knocked down by siRNA)”; in assay [4], “binds”; in assay [5] it was “binds”.

For “endogenous IRS-1 (MCF-7) (from UniProt P35568 1-1242)”, in assay [6], the binding entry is “binds”.

B1: endogenous TRAF4 (MCF-7) (protein, UniProt Q9BUZ4 1-470)
chain: T1 sequence
B1: the binding result in assay [7] was “binds”.

B2: myc-tagged TRAF4 (protein, UniProt Q9BUZ4 1-470)
chain: T1 sequence
For B2, the binding result in assay [8] and in [9] was “binds” throughout.
